Among the data in the supplement of paper PMC10849652 are log2 fold change values, retold here.

Chains of the proteins cited; added tags and fusions are not shown. Lines headed by an entry give the natural chain unless they say otherwise; changes in a name come on top.
UniProt Q5JPH6: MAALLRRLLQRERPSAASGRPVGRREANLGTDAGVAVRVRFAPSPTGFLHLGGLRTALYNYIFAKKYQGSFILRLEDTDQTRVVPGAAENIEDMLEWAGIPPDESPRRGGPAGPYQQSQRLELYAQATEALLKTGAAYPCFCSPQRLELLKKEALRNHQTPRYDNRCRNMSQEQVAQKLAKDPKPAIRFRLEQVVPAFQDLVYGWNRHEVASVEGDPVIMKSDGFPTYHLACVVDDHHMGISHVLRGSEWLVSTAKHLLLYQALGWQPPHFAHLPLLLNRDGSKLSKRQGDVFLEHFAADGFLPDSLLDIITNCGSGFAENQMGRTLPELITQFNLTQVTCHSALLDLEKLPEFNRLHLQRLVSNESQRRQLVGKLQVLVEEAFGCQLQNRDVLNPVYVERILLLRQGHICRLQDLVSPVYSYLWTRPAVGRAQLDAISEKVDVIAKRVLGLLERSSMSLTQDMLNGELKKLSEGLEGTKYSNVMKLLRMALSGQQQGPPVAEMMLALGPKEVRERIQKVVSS
UniProt O60762: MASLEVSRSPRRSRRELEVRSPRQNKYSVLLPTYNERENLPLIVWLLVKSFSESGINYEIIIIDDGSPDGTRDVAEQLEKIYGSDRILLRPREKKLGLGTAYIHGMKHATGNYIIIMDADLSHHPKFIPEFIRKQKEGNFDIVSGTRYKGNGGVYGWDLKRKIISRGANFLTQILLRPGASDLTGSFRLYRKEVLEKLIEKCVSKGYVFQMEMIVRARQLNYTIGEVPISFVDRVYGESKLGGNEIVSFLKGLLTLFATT
UniProt Q7Z388: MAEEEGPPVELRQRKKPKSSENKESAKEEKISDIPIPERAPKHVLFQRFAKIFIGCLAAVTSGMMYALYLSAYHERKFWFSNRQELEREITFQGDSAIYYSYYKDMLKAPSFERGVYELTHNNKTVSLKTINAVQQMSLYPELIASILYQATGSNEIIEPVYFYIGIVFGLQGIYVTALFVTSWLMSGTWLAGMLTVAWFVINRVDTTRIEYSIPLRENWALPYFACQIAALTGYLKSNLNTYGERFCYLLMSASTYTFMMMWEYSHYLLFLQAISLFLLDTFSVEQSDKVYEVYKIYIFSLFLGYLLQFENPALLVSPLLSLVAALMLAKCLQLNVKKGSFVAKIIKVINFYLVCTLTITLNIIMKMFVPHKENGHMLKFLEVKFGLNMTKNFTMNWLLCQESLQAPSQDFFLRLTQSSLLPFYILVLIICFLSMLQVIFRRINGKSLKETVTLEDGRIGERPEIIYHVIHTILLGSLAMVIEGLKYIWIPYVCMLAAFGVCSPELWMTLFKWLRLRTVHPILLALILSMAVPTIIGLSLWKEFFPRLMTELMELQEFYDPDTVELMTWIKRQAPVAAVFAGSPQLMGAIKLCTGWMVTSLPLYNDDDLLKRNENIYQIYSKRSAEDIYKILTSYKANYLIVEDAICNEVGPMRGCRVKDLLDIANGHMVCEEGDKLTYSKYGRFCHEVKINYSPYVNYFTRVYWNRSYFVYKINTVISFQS
UniProt O75190: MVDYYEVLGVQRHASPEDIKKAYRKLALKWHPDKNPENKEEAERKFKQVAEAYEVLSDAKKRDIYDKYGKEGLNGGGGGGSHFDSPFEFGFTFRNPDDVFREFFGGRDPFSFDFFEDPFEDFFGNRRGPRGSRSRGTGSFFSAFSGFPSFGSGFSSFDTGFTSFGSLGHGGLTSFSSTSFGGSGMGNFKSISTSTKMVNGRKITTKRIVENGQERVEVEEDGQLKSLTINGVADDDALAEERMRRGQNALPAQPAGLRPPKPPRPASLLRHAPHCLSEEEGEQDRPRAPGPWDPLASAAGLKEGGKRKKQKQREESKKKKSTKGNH
UniProt Q92611: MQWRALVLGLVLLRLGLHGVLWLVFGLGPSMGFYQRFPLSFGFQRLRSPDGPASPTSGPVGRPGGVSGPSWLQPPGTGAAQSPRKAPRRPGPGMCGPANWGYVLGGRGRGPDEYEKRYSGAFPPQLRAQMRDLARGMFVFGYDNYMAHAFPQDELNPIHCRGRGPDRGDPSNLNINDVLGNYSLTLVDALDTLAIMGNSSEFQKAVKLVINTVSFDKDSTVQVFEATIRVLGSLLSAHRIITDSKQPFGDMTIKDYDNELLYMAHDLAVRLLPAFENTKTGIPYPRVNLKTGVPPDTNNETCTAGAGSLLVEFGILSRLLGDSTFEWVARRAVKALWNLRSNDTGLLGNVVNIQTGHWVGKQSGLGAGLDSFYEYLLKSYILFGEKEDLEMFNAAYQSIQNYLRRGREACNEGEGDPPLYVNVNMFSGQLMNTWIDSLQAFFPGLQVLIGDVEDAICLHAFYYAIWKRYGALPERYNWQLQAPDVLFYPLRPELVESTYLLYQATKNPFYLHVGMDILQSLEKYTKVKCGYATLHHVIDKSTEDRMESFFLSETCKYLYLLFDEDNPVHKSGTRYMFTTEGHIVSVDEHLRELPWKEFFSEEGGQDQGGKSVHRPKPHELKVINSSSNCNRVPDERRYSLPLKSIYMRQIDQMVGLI
UniProt Q15125: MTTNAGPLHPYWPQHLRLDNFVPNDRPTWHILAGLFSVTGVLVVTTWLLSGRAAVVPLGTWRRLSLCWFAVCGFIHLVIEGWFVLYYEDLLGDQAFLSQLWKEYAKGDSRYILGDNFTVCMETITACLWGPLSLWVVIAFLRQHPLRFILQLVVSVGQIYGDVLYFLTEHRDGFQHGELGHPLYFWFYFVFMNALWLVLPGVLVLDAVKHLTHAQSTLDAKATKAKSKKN
UniProt P33316: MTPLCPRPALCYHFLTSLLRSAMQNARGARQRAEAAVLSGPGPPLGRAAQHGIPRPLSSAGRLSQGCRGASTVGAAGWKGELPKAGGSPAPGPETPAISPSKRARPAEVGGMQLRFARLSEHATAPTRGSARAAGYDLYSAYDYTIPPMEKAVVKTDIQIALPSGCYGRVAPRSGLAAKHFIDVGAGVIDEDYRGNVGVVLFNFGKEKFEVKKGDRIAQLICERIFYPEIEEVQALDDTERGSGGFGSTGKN
UniProt Q8WWZ3: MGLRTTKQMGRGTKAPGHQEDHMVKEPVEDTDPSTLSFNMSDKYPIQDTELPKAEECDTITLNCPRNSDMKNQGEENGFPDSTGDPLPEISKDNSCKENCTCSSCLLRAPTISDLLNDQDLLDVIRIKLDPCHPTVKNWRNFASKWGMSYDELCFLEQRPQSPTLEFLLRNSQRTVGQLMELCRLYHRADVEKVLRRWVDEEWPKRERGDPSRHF
UniProt O95620: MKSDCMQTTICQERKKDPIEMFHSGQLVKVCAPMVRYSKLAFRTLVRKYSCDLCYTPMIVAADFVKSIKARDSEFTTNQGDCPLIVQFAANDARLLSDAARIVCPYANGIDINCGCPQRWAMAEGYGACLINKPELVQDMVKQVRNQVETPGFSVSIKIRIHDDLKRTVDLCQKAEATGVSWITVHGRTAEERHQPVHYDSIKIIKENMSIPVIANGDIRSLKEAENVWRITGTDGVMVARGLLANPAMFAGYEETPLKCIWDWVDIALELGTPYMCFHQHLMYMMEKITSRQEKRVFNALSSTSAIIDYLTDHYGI
UniProt Q9UNI6, whole entry, looked up: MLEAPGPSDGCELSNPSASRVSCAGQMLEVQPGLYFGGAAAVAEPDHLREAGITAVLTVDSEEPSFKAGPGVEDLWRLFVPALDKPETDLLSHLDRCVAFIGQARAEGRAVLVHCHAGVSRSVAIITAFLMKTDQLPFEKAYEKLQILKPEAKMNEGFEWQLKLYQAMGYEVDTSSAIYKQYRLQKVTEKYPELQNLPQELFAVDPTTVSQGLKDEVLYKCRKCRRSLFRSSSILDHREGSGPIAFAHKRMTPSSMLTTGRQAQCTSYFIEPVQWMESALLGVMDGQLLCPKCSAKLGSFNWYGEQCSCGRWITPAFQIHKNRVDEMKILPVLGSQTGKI
UniProt P42126: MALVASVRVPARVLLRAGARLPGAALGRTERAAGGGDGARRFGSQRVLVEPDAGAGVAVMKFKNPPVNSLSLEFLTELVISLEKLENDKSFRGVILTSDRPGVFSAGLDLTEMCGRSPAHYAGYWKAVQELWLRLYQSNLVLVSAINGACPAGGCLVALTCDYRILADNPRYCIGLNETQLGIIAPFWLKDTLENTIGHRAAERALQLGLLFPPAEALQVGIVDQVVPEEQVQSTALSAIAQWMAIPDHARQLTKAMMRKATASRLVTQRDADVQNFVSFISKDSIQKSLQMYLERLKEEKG
UniProt Q9Y295: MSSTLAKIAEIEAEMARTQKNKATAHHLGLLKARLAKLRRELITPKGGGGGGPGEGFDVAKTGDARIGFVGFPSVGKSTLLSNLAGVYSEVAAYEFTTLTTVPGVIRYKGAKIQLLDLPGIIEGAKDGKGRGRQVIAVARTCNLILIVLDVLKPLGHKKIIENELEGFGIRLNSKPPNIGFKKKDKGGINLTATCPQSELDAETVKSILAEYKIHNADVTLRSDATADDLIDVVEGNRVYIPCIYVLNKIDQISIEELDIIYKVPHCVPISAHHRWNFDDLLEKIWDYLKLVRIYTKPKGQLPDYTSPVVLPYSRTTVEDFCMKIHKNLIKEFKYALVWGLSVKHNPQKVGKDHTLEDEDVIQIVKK
UniProt Q9BZ29: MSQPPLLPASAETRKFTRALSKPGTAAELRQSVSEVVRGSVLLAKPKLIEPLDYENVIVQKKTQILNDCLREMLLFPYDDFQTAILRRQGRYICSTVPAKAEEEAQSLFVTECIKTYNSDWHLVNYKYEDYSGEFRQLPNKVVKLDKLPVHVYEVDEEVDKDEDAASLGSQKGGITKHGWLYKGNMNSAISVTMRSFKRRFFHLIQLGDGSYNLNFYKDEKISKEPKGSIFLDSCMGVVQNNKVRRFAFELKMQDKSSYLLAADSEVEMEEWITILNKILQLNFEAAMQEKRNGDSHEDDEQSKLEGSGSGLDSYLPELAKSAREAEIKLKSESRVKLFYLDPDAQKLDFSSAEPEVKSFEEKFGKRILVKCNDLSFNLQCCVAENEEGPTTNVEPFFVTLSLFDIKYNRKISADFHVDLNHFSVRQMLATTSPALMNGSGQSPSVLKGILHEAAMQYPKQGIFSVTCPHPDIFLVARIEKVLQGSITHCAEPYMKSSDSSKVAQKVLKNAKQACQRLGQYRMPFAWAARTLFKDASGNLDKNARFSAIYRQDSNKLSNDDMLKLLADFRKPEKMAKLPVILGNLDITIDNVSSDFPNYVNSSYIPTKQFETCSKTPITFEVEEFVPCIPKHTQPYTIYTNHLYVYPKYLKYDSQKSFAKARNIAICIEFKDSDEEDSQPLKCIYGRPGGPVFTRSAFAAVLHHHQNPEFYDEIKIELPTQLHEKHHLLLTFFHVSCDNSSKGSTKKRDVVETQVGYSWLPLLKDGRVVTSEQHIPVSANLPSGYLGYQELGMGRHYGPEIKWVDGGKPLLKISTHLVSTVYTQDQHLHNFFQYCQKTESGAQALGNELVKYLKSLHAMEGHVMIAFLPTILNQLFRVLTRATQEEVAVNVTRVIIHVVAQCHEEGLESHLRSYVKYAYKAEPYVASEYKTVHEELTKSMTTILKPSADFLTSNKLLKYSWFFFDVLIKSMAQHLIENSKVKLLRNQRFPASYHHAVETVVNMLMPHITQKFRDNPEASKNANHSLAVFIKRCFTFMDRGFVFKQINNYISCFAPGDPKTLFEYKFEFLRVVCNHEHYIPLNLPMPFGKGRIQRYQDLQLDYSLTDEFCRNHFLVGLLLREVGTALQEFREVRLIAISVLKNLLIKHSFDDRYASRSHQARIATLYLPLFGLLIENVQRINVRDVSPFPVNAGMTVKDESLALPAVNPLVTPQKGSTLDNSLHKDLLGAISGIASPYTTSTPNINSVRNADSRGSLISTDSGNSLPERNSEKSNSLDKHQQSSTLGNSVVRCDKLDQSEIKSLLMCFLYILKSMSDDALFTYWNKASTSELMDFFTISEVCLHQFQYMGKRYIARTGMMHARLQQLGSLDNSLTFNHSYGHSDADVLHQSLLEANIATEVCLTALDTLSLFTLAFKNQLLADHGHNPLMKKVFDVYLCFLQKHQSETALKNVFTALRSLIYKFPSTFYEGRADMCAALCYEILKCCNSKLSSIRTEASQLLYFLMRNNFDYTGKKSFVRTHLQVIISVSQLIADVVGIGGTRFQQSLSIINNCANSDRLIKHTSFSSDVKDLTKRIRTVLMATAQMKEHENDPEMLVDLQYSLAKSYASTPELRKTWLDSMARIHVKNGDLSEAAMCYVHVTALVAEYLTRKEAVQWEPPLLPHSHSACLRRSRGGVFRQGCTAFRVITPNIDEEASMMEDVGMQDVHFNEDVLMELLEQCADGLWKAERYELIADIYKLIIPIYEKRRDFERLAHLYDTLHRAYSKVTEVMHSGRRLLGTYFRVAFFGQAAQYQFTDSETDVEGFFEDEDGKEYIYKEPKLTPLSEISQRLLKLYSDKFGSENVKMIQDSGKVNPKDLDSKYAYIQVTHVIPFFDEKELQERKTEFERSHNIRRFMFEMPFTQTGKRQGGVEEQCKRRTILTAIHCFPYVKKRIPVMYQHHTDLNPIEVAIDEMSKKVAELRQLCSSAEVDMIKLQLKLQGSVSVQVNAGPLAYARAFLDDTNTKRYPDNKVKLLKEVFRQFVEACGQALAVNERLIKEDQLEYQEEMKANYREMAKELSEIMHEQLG

This is one part of the list.

Compound in this assay: CC1=C(C=C(C=C1)NC(=O)C2=CC(=CC=C2)C(C)(C)C#N)NC3=CC4=C(C=C3)N=CN(C4=O)C
Kind of assay: log2 fold change, soluble protein after heating vs DMSO (PISA); higher = thermal stabilisation; K562 cells, 10 uM, 30 min; active = over 0.2 and 3.5 SD of the protein, either way, in both replicates (recomputed). In outline: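 For each measurement, 10 μM compound was applied for 30 min to K562 cells at 2×10^6 cells/mL. Aliquots were heated for 3 min across 48°C-58°C, pooled, and extracted in PBS with 0.5% NP-40 at 4°C; the supernatant after 21,000xg for 90 min was soluble protein. This was quantified by TMTpro 16plex LC-MS/MS with channel sums equalised, and thermal stability was reported relative to control samples from duplicates, on a log2 fold-change scale.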
Turning to ECHDC1 (UniProt Q9NTX5), the log2 fold change was inactive: -0.007. As to DNAJA3 (UniProt Q96EY1), the log2 fold change was inactive: 0.001. DPH7 (UniProt Q9BTV6): the log2 fold change was inactive: -0.059. As for DPM3 isoform 2 (UniProt Q9P2X0), the log2 fold change is inactive: 0.05.

Consider EARS2 isoform 2 (UniProt Q5JPH6), for which the log2 fold change is inactive: -0.021. Regarding DST (UniProt Q03001), the log2 fold change is inactive: -0.142. For DPM1 (UniProt O60762), the log2 fold change was inactive: 0.022. ECE1 (UniProt P42892): the log2 fold change was inactive: 0.087. The same measure for EDF1 (UniProt O60869): inactive: 0.002; for DPY19L4 (UniProt Q7Z388): inactive: -0.263. Then DNAJB6 (UniProt O75190), with inactive: -0.089; and EDEM1 (UniProt Q92611), with inactive: -0.012; and DNAJB4 (UniProt Q9UDY4), with inactive: -0.004. The same measure for EBP (UniProt Q15125): inactive: 0.111; for DUT (UniProt P33316): inactive: -0.031. As to DPF2 (UniProt Q92785), the log2 fold change was inactive: -0.093. As to EDARADD (UniProt Q8WWZ3), the log2 fold change is inactive: -0.023. DUS4L (UniProt O95620): the log2 fold change is inactive: -0.045. Then DR1 (UniProt Q01658), with inactive: -0.009; and DUSP12 (UniProt Q9UNI6), with inactive: 0.045; and EAF1 (UniProt Q96JC9), with inactive: 0.028. Then DPH1 (UniProt Q9BZG8), with inactive: -0.033; and DPY30 (UniProt Q9C005), with inactive: -0.042.

As for DNMT1 isoform 2 (UniProt P26358), the log2 fold change is inactive: 0.011. On to DNAJC3 (UniProt Q13217), for which the log2 fold change was inactive: -0.039. Then DSG2 (UniProt Q14126), with inactive: -0.01.

Regarding ECI1 (UniProt P42126), the log2 fold change was inactive: 0. Regarding DRG1 (UniProt Q9Y295), the log2 fold change is inactive: 0.033. The same measure for DSTN (UniProt P60981): inactive: 0.018. The same measure for DOCK9 isoform 4 (UniProt Q9BZ29): inactive: 0.026.

Consider DPH2 (UniProt Q9BQC3), for which the log2 fold change was inactive: -0.001.

In the case of DSC2 (UniProt Q02487), the log2 fold change is inactive: -0.03. On to DYNC1LI1 (UniProt Q9Y6G9), for which the log2 fold change was inactive: 0.054. As for ECM1 isoform 4 (UniProt Q16610), the log2 fold change was inactive: 0.027.
